Reference: patent US20110178072A1, “STEREOSPECIFICITY OF METHYLSULFINYL REDUCTION” (priority 2008, published 2011)

Columns and labels:
SK-Hep1 cells = experiment: HPLC analysis of consumption of Met and Met sulfoxides from growth media; format: cell-based, human; conditions: at 96 hours
[1] = HPLC analysis of Met-RO and Met-SO level in mouse plasma; format: in vivo
[2] = medium supplemented with the compound alone (0.1 mM)
[3] = wild type mice subjected to selenium deficiency

Row | SMILES | Relative amount in the medium, of the initial level (SK-Hep1 cells; [2]) | Relative amount in the medium, of the initial level (SK-Hep1 cells; in Met-RSO medium (0.1 mM)) | Concentration in plasma ([1]; MsrA knockout mice) | Concentration in plasma ([1]; wild type mice) | Concentration in plasma [1, 3]
1 | CSCC[C@H](N)C(=O)O [Met, methionine] | approximately 60% | – | – | – | –
2 | C[S@@+]([O-])CC[C@H](N)C(=O)O [Met-RO, methionine-R-sulfoxide] | not changed | not changed | ≈ 9.8±1.6 μM | ≈ 9.1±0.7 μM | ≈ 16.2±2.4 μM
3 | C[S@+]([O-])CC[C@H](N)C(=O)O [Met-SO, methionine-S-sulfoxide] | 88% | 77% | ≈ 14.6±3.1 μM | not detected | ≈ 3.7±0.6 μM
